Measurements taken from paper PMC9289467, “A Novel Multifunctional 5,6-Dimethoxy-Indanone-Chalcone-Carbamate Hybrids Alleviates Cognitive Decline in Alzheimer’s Disease by Dual Inhibition of Acetylcholinesterase and Inflammation” (Frontiers in Aging Neuroscience, 2022).

System: hippocampal gene expression
Test: Bulk RNA-seq of hippocampal tissues
Format: in vivo
Settings: hippocampus, AP5-treated vs untreated APP/PS1 mice
Description: APP/PS1 mice of ages 6 months were randomly divided into vehicle (APP/PS1, n = 10) and treatment groups (AP5, n = 10), which were intragastrically administered with AP5 (40 mg/kg) once daily for consecutive 5 months. AP5 was dissolved in distilled water containing 1% sodium carboxymethyl cellulose.
Hippocampal specimens from WT, APP/PS1, and AP5 mice stored in dry ice were sent to Beijing Genomics Institute (Wuhan, China), and the total RNA was extracted for RNA sequencing on BGISEQ-500 system. Moreover, the differentially expressed genes between APP/PS1 and AP5 were analyzed after RNA sequencing.

## CCN(C)C(=O)Oc1cccc(/C=C2\Cc3cc(OC)c(OC)cc3C2=O)c1 [AP5, (E)-3-((5,6-dimethoxy-1-oxo-1,3-dihydro-2H-inden-2-ylidene)-methyl)phenylethyl(methyl)carbamate]
  differentially expressed genes: 933 genes
  induced genes: 425 genes
  suppressed genes: 508 genes
